Test results: PubChem BioAssay AID2685 (National Center for Advancing Translational Sciences (NCATS), 2010)
Hit rate of the full screen: of about 320,000 compounds, about 2,100 (0.66%) were called active. Inconclusive results, whose numbers are uncertain, are shown with a selection of clear calls. Calls follow the shape of the dose curve; as a rule, active = well fitted inhibition curve with a large enough effect in the signal ratio, with a control signal flat (not every such curve was filed as active); inconclusive = small, poorly fitted or top-dose-only effect, or effect the other way, or a change in a side signal; inactive = flat fitted curve, though single readings scatter; the % refers to the signal ratio. Potencies beside an inconclusive call are fits to weak or partial responses and may not hold up.

Assay: qHTS Assay for Lipid Storage Modulators in Drosophila S3 Cells
Settings: BODIPY lipid droplet fluorescence, 18-24 h, cells fed with added oleic acid; lipid storage change, negative = inhibition: at 46.1 µM (top of the series) unless noted
Summary of the method: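 Drosophila S3 cells got compounds at several concentrations plus oleic acid (400 uM solution). Laser-scanning cytometry with 488 nm excitation read lipid droplets at 500-530 nm and cells at 575-640 nm. Percent activity was relative to 20 uM Triacsin C.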
% is scaled to controls: 0 for no effect and ±100 for the full control effect; potency is read from the fitted curve at half-maximal effect.

Row | SMILES | Potency | lipid storage change, negative = inhibition
1 | Cc1ccc(OCc2nnc(NC(=O)OCC(C)C)s2)cc1 | active: 18.4 µM | 
2 | COC(=O)c1[nH]c2cc(OC)c(OC)cc2c1NC(=O)Oc1ccccc1 |  | inconclusive: -19.1%
3 | Cn1c(-c2ccc(F)cc2)cnc1SCC(=O)N1CCCc2ccccc21 |  | inconclusive: 29.9%
4 | Cc1c(CN2CCC(C)CC2)c(=O)n(-c2ccccc2)n1C |  | inconclusive: -12.7%
5 | Cc1ccccc1-c1nnc(SCC(=O)Nc2ccc3c(c2)OCCO3)n1N |  | inconclusive: 9.91%
6 | CC1CCN(S(=O)(=O)c2ccc(C(=O)OC(C)C(=O)N(C)C3CCCCC3)cc2)CC1 (centres undefined) | inconclusive: 23.1 µM [activator, single point] | 
7 | Cc1ccc(C(=O)NCc2ccco2)o1 |  | inconclusive: -7.62%
8 | CCCOc1ccc(/C=C2/C(=O)ON=C2C)cc1OCC | inconclusive: 29.1 µM [activator, single point] | 
9 | Cc1csc2c(N3CCC(C(=O)O)CC3)ncnc12 |  | inconclusive: 9.93%
10 | O=C(Nc1cccc(Cl)c1)Nc1cnccn1 |  | inconclusive: -0.398%
11 | C=Cc1ccc(COC(=O)c2cn(CC)c3nc(C)ccc3c2=O)cc1 |  | inactive
12 | O=C(NCc1cccnc1)c1cccc(S(=O)(=O)N2CCCCC2)c1 |  | inconclusive: -12.3%
13 | Cc1occc1-c1nnc(SCC(=O)NC(C)(C)C)n1C(C)c1ccccc1 (centres undefined) | inconclusive: 6.51 µM [activator, single point] | 
14 | CC(=O)NCCc1ccc(C(=O)CSc2nnc(C3CC3)n2C2CC2)cc1 |  | inconclusive: 20.1%
15 | COCCNC(=O)C1Cc2cc(S(=O)(=O)N3CCCC3)ccc2N1C(C)=O (centres undefined) | inconclusive: 29.1 µM [activator, single point] | 
16 | CC(C)[n+]1ccn(C2=C([O-])c3ccccc3C(=O)/C2=N\S(=O)(=O)c2ccccc2)c1 | inconclusive: 23.1 µM [falling, single point] | 
17 | CN(Cc1ccccc1)C(=O)c1[nH]cnc1C(=O)Nc1nccs1 | inconclusive: 0.651 µM [falling, single point] | 
18 | CC1CCCC(NC(=O)COC(=O)[C@@H](NC(=O)c2ccco2)C(C)C)C1C (some centres undefined) | inconclusive: 0.0065 µM [falling, full curve, poor fit] | 
19 | COc1ccc(NC(=O)/C=C/c2cccc(Br)c2)cn1 | inconclusive: 1.16 µM [activator, single point] | 
20 | Cc1ccc(/C=N/N2CCN(Cc3ccc(C)cc3)CC2)cc1 |  | inconclusive: -7.08%
21 | CC(=O)c1ccc(N2CCN(C(=O)COc3ccc(F)cc3)CC2)c(F)c1 |  | inconclusive: 34.4%
22 | Cc1ccc(OCCC(=O)OCC(=O)C(C)(C)C)cc1 |  | inconclusive: 29.2%
23 | CC(C)(C)OC(=O)N1CCN(C(=O)c2[nH]cnc2C(=O)Nc2ccon2)CC1 |  | inconclusive: 9.58%
24 | COC(=O)c1ccc(-c2csc(NC(=O)c3ccc(S(=O)(=O)N4CCc5ccccc5C4)cc3)n2)cc1 |  | inconclusive: -10.5%
25 | C=CCN1CCN(C(=O)c2c(-c3ccccc3)noc2C)CC1 | inconclusive: 29.1 µM [activator, single point] | 
26 | C[C@@]12C(=O)N(CC3CCCO3)CC(=O)N1[C@H]1c3ccccc3OC[C@@H]1[C@@H]2c1ccccc1 (some centres undefined) |  | inconclusive: -58.5%
27 | Cc1ccc(CNC(=O)c2ccccc2NS(C)(=O)=O)cc1 |  | inconclusive: 51.5%

Row | SMILES | Potency | lipid storage change, negative = inhibition
28 | Cc1nn(CC(=O)Nc2ccccc2)c(=O)c2ccccc12 |  | inconclusive: 21.5%
29 | NC1=NC[C@@H](Cc2ccc(O)cc2)N1CCc1cccc2ccccc12 |  | inconclusive: -2.78%
30 | C/C=C/C(=O)OCC(=O)Nc1cccc(F)c1 | inconclusive: 2.31 µM [falling, single point] | 
31 | CCCN1CCN(C(=O)CS(=O)(=O)Cc2nc(-c3cccc(OC)c3)oc2C)CC1 |  | inconclusive: 35.2%
32 | Oc1ccccc1C=NC(c1ccccc1)C(O)c1ccccc1 (centres undefined) | inconclusive: 0.82 µM [falling, full curve, poor fit] | 
33 | O=C1OCC2=C1C(c1ccc(F)cc1)c1cc3c(cc1N2)OCCO3 (centres undefined) |  | inconclusive: 2.8%
34 | CCCCn1c(N)c(N(CCC(C)C)C(=O)CC2CCCC2)c(=O)[nH]c1=O |  | inconclusive
35 | CCN(CC)S(=O)(=O)c1ccc(N2CCOCC2)c(NS(=O)(=O)c2ccc(OC)cc2)c1 | active: 20.6 µM | 
36 | CCCn1c(N)c(Sc2ccccc2[N+](=O)[O-])c(=O)n(CCC)c1=O |  | inconclusive: -182%
37 | Cc1ccc(CC(=O)N2CC(C)OC(C)C2)cc1 (centres undefined) |  | inconclusive: -15.8%
38 | O=C(CN1C(=O)COc2ccccc21)NCc1ccccn1 |  | inconclusive: -17.1%
39 | C/C=C/c1ccc(OCC(O)CN2CCCCC2CC)c(OC)c1 (centres undefined) |  | inconclusive: -33.5%
40 | CC1(C)Cc2nc3nc(SCC(=O)NCCc4ccccc4)n(-c4ccccc4)c(=O)c3cc2CO1 |  | inconclusive: -51.9%
41 | C=Cc1c(C)c2cc3[nH]c(cc4nc(cc5nc(cc1[nH]2)C(C)=C5CCC(=O)O)C(CCC(=O)O)=C4C)c(C)c3C=C |  | inconclusive: 21.4%
42 | CC1CN(S(=O)(=O)c2cccc(C(=O)N(Cc3nnc(-c4ccccc4Cl)o3)C3CC3)c2)CC(C)O1 (centres undefined) | inconclusive: 6.51 µM [falling, single point] | 
43 | CCC(C)[C@H](NC(=O)NCc1cccc(OC)c1)C(=O)O (some centres undefined) | active: 6.51 µM | 
44 | COC(=O)c1cc(C(=O)Cc2ccccc2)c[nH]1 |  | inconclusive: -7.98%
45 | CCCc1nnc(NC(=O)c2cc3ccccc3o2)s1 |  | inconclusive: -33.7%
46 | O=C(O)C1C2C=CC3(O2)C1C(=O)N1c2ccccc2C2OCCC2C13 (centres undefined) | inconclusive: 0.13 µM [falling, full curve, poor fit] | 
47 | Cc1ccc(S(=O)(=O)N(C)C)cc1NC(=O)C(C)OC(=O)C1CCCC1 (centres undefined) |  | inconclusive: 25.2%
48 | NC(=O)c1nn(CC(=O)Nc2ccc3c(c2)OCO3)cc1[N+](=O)[O-] |  | inconclusive: 39%
49 | N#CC1=C(N)N(c2ccccc2)C(c2cccc([N+](=O)[O-])c2)C1(C#N)C#N (centres undefined) | inconclusive: 1.46 µM [activator, partial curve] | 
50 | O=C(NCCN1CCOCC1)c1csc2c1CCCC2 |  | inconclusive: 9.38%
51 | CC(Sc1ccccc1)C(=O)N1CCN(S(=O)(=O)c2ccccc2)CC1 (centres undefined) | active: 0.0103 µM | 
52 | O=S(=O)(c1ccc(NC(=S)NC2CCCC2)cc1)N1CCCC1 |  | inconclusive: -6.39%
53 | CCCn1c(SCC(=O)N2CCOCC2)nnc1-c1ccncc1 | inconclusive: 0.13 µM [falling, partial curve, poor fit] | 
54 | O=C(COc1ccc2c(c1)OCO2)Nc1ccccc1C(F)(F)F |  | inconclusive: 14.1%

Part of the list above in a different format:
CC1CCN(S(=O)(=O)c2ccc(C(=O)OC(C)C(=O)N(C)C3CCCCC3)cc2)CC1 (centres undefined)
  Potency: inconclusive: 23.1 µM [activator, single point]
Cc1ccc(C(=O)NCc2ccco2)o1
  lipid storage change, negative = inhibition: inconclusive: -7.62%
CCCOc1ccc(/C=C2/C(=O)ON=C2C)cc1OCC
  Potency: inconclusive: 29.1 µM [activator, single point]
Cc1csc2c(N3CCC(C(=O)O)CC3)ncnc12
  lipid storage change, negative = inhibition: inconclusive: 9.93%

The listing continues.

Row | SMILES | Potency | lipid storage change, negative = inhibition
55 | COc1cc(/C=C(/C#N)c2ccc(F)cc2)ccc1Oc1ccc([N+](=O)[O-])cn1 |  | inconclusive: -47.9%
56 | Cc1cc(N2CCCC2)ccc1/C=C1/C(=O)N(C)C(=S)N1C | inconclusive: 6.51 µM [falling, single point] | 
57 | CN1Cc2ccccc2N(CC(=O)NCc2ccccc2)C1=O |  | inconclusive: -39.3%
58 | CCOC(=O)CCC(=O)N1CCOCCOCCOCC1 | inconclusive: 4.61 µM [falling, full curve, poor fit] | 
59 | CC(=O)c1ccc(NC(=O)CCNS(=O)(=O)c2ccccc2F)cc1 |  | inconclusive: 71.1%
60 | COc1ccc(NC(=O)CN2CCN(CC(=O)Nc3ccc(OC)cc3)CC2)cc1 |  | inconclusive: 9.17%
61 | COCCNC(=O)c1cc(-c2ccccc2OC)on1 |  | inconclusive: -14.5%
62 | O=C(c1ccccc1Cl)N1CCSCC1 |  | inactive
63 | CC(C)(C)C1CCC(N2CCN(c3ccccc3)CC2)CC1 (centres undefined) |  | inconclusive: -22.1%
64 | COc1ccc(C(CNC(=O)c2cccc(S(=O)(=O)Nc3ccc(C)cc3)c2)N2CCCCC2)cc1 (centres undefined) |  | inconclusive: 26.1%
65 | CN1CCN(CC(O)COc2ccc(Cl)cc2)CC1 (centres undefined) | inconclusive: 9.2 µM [falling, partial curve, poor fit] | 
66 | O=C(COc1cccc2ccccc12)N/N=C/c1ccncc1 |  | inconclusive: 7.84%
67 | CCCc1cc(=O)oc2c3c(cc(OCC(=O)NCc4ccccn4)c12)OC(C)(C)CC3 | inconclusive: 8.2 µM [falling, partial curve, poor fit] | 
68 | O=C(NC(NC(=S)Nc1c(Cl)cccc1Cl)C(Cl)(Cl)Cl)OCc1ccccc1 (centres undefined) |  | inconclusive: 7.96%
69 | CC1Cc2ccccc2N1C(=O)CSc1ccccc1 (centres undefined) |  | inactive
70 | Cc1ccc(S(=O)(=O)Nc2cc(=O)[nH]c3c2CCC3)cc1 |  | inconclusive: -44%
71 | Cn1[nH]c(CSc2ccc(Cl)cc2)cc1=O |  | inconclusive: -22.6%
72 | O=[N+]([O-])c1cc(C(F)(F)F)ccc1NCCCCNS(=O)(=O)c1ccc2ccccc2c1 |  | inconclusive: -10.9%
73 | NC(=O)COc1c(-c2ccc(Br)o2)oc2ccccc2c1=O |  | inconclusive: -40.1%
74 | CC(c1ccco1)N(C(=O)c1ccccc1NS(=O)(=O)c1cc([N+](=O)[O-])ccc1Cl)c1ccccn1 (centres undefined) |  | inconclusive: -38.7%
75 | Cn1cnnc1SCC(=O)c1ccc2c(c1)CCCC2 |  | inconclusive: 17%
76 | CC(OC(=O)c1ccco1)C(=O)NCc1ccc2c(c1)OCO2 (centres undefined) |  | inconclusive: 2.25%
77 | COc1cccc2c1-c1c(O)cccc1C2=O |  | inconclusive: -38.8%
78 | Cc1cc(-n2c(SCC(=O)Nc3ccc(F)c(F)c3)nc3n[nH]c(C)c3c2=N)ccc1Cl | inconclusive: 29.1 µM [falling, single point] | 
79 | C[C@]1(OC(=O)/C=C/c2ccccc2)C[C@@H](O)[C@]2(O)C=CO[C@@H](O[C@@H]3O[C@H](CO)[C@@H](O)[C@H](O)[C@H]3O)[C@@H]21 |  | inconclusive: 0.989%
